Test results taken from the supplement of paper PMC10849652.
The other results are listed elsewhere or left out.

By UniProt entry, the sequences of proteins in these tests, tags left out. Where a name states a change or a piece, a line headed by the entry shows the natural chain unless it says otherwise.
UniProt Q9UJ41, whole entry, looked up: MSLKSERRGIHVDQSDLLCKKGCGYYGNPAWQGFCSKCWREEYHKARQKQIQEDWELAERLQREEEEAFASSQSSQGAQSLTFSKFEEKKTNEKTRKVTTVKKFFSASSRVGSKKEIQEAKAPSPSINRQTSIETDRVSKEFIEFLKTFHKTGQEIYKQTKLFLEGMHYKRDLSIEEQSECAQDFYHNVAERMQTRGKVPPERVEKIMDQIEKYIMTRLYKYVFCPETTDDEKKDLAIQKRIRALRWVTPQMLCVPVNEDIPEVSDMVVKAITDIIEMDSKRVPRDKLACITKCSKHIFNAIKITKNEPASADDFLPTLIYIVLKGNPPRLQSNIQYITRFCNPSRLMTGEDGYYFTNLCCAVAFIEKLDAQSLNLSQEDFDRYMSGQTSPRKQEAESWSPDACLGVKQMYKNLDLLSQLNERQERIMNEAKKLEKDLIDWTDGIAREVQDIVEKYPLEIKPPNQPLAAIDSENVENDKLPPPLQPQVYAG
UniProt Q9Y3L5: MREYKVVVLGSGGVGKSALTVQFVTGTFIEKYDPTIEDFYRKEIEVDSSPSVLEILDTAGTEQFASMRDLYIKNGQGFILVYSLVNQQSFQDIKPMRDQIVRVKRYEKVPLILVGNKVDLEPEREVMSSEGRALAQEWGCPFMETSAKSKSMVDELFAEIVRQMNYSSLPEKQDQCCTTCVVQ
UniProt P61026: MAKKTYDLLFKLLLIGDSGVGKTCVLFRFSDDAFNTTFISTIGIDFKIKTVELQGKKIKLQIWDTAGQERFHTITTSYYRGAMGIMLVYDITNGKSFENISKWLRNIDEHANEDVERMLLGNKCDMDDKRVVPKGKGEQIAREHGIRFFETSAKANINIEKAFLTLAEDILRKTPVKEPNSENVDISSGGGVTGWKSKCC
UniProt Q53S08: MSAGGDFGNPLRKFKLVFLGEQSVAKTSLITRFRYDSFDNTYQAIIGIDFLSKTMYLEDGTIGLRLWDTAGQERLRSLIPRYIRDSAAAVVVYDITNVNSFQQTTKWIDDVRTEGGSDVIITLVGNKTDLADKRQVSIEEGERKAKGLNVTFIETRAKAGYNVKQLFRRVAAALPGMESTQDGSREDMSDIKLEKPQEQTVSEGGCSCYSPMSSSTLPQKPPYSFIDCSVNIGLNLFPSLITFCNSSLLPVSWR
UniProt Q8TBN0: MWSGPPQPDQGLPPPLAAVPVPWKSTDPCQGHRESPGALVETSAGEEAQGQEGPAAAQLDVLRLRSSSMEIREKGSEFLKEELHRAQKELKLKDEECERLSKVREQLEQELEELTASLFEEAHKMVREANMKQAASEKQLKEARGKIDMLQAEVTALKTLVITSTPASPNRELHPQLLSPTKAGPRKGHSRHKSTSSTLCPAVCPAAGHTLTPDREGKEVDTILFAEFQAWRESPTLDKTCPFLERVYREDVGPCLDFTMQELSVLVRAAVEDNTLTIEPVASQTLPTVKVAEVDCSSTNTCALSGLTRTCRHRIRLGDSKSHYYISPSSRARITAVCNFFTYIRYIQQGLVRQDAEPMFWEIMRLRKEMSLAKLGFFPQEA
UniProt Q92930: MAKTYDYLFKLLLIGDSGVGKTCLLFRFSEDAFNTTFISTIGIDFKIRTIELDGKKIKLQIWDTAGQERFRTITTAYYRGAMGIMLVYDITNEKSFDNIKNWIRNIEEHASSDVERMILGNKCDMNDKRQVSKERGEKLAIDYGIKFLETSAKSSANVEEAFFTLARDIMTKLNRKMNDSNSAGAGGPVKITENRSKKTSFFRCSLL
UniProt P11234: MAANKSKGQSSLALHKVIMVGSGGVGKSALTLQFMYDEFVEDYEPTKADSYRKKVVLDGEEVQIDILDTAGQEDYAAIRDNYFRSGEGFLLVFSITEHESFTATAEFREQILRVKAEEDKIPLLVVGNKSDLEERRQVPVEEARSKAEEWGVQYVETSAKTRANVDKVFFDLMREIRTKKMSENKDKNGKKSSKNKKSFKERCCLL
UniProt P20338: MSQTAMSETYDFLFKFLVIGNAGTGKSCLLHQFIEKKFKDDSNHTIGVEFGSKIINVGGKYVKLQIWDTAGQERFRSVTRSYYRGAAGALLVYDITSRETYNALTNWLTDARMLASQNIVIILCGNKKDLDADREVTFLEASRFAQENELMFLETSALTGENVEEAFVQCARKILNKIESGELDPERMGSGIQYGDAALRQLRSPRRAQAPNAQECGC
UniProt Q9NW64: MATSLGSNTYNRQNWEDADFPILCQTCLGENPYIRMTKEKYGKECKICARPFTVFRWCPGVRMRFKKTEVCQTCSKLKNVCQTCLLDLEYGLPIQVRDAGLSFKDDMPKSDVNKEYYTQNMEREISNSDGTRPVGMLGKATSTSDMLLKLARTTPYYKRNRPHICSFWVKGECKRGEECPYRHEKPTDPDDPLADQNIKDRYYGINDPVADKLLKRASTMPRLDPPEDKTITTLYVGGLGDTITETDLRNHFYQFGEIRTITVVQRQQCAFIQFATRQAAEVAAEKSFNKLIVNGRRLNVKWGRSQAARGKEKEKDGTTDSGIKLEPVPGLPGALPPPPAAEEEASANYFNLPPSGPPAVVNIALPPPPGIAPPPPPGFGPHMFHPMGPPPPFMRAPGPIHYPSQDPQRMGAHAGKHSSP
UniProt P47224: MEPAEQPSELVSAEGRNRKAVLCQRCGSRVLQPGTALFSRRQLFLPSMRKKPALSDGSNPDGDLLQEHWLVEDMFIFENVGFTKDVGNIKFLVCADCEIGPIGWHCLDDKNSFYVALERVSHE
UniProt P46060: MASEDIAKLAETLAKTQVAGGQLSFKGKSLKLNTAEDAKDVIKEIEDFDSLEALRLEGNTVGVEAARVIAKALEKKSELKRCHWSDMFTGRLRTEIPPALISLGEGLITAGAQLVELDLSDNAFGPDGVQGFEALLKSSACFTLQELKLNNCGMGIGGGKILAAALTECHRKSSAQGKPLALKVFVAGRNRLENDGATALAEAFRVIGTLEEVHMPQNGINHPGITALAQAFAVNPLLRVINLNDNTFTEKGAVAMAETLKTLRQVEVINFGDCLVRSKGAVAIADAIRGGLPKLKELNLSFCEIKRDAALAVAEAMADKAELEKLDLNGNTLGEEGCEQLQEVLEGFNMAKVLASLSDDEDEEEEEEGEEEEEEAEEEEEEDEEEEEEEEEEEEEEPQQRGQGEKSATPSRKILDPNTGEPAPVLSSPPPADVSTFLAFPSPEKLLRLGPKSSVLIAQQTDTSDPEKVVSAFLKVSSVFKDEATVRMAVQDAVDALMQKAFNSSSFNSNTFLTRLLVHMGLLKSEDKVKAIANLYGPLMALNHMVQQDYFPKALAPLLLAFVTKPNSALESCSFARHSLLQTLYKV
UniProt P52306: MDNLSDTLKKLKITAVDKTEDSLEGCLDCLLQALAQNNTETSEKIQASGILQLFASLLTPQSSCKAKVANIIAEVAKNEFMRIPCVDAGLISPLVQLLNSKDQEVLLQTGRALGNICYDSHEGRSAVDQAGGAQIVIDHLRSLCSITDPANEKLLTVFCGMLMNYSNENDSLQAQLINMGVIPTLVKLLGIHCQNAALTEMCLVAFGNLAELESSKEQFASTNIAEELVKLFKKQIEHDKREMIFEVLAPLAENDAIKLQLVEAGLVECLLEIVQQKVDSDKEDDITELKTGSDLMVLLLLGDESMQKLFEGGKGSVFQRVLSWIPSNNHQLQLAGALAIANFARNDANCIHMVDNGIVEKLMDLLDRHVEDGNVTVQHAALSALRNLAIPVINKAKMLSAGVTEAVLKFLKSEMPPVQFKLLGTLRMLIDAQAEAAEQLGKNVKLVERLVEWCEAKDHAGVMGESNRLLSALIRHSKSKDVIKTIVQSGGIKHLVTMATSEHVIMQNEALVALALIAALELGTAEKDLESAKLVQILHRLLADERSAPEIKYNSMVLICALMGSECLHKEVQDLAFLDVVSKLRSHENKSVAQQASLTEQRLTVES
UniProt P51148: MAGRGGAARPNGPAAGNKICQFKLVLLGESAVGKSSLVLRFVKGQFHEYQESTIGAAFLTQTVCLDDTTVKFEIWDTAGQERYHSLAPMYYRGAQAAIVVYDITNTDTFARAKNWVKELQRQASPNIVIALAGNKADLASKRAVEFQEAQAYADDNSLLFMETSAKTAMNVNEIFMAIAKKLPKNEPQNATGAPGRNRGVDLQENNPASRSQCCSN
UniProt Q3YEC7: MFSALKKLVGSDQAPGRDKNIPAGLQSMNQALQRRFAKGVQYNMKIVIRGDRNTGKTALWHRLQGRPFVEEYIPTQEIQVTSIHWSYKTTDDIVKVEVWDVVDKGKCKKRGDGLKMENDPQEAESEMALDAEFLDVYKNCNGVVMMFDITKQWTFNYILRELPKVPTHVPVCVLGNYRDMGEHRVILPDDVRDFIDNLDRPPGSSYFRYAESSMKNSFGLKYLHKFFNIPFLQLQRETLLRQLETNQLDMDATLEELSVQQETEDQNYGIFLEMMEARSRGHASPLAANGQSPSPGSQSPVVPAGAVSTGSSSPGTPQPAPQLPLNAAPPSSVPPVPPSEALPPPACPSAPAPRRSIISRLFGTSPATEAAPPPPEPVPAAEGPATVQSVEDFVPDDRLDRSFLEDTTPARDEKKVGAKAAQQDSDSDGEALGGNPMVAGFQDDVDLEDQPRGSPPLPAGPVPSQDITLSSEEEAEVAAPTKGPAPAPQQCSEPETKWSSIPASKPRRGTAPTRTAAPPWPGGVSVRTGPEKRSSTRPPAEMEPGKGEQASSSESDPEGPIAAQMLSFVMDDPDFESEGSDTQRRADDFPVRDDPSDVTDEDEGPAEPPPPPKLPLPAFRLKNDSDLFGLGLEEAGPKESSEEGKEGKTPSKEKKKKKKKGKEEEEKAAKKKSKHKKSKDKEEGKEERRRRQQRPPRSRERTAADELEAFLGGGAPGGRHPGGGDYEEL
UniProt P53611: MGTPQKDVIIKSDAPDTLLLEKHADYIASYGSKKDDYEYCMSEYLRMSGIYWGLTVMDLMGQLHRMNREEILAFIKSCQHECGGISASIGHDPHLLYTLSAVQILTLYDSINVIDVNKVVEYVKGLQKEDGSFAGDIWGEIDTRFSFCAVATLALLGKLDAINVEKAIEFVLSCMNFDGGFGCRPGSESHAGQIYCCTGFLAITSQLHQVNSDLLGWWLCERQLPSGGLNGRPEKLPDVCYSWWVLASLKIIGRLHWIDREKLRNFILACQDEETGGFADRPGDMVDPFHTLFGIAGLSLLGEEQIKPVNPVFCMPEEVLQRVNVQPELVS
UniProt P11233: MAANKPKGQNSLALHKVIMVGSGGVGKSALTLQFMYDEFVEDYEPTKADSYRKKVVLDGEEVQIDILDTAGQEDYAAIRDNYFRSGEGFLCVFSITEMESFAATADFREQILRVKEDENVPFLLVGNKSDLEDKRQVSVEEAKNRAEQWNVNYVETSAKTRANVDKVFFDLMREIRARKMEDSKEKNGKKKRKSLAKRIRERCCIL
UniProt O14966: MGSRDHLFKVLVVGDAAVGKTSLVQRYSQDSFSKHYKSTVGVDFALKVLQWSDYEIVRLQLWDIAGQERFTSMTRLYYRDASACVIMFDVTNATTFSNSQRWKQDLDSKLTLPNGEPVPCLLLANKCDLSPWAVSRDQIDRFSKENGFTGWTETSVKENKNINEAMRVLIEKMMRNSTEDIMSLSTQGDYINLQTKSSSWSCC
UniProt P06400: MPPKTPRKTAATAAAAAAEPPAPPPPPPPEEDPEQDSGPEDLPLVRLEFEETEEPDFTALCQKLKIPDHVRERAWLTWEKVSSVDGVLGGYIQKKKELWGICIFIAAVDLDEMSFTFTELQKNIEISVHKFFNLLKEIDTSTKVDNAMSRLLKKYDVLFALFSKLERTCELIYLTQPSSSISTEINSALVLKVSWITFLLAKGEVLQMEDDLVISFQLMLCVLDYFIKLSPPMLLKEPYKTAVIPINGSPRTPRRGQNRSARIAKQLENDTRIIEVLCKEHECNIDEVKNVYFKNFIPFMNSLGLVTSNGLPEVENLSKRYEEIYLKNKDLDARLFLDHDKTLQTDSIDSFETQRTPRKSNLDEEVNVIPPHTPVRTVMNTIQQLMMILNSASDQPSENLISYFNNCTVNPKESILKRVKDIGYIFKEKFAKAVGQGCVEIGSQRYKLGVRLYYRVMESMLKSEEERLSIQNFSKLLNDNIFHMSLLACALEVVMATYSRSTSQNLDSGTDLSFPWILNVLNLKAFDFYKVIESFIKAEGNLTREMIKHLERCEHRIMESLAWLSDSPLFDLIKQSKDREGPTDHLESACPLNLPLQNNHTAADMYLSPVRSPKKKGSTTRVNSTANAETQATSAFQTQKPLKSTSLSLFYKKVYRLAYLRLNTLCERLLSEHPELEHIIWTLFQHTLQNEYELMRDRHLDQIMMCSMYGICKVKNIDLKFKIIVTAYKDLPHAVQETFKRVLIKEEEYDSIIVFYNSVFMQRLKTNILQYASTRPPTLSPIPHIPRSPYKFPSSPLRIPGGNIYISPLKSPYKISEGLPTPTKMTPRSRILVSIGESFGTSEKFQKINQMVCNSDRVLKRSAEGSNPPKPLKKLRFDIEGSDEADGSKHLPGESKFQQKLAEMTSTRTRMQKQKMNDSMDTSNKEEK

Compound: C1CN(CCC1(CC2=CC=C(C=C2)Cl)N)C3=NC=NC4=C3C=CN4
Test: log2 fold change, soluble protein after heating vs DMSO (PISA); higher = thermal stabilisation; K562 cells, 10 uM, 30 min; active = over 0.2 and 3.5 SD of the protein, either way, in both replicates (recomputed)
How it was run: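 K562 cells at 2×10^6 cells/mL were exposed to 10 μM compound for 30 min, then aliquots were heated for 3 min across 48°C-58°C, pooled, and extracted in PBS containing 0.5% NP-40 at 4°C. The supernatant after 21,000xg for 90 min was taken as soluble protein and measured by TMTpro 16plex LC-MS/MS with channel sums equalised. Thermal stability is reported relative to control samples, with values from duplicates. Fold changes are given on a log2 scale.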

log2 fold change, inactive:
RABGEF1 isoform 3 (UniProt Q9UJ41) -0.029
RAP2C (UniProt Q9Y3L5) 0.034
RAB10 (UniProt P61026) 0.08
RAB6D (UniProt Q53S08) 0.202
RAB3IL1 (UniProt Q8TBN0) -0.013
RAB11FIP1 (UniProt Q6WKZ4) 0.027
RAB8B (UniProt Q92930) -0.043
RAD1 (UniProt O60671) 0.07
RALB isoform 2 (UniProt P11234) 0.02
RARS (UniProt P54136) -0.155
RAB4A (UniProt P20338) 0.019
RBM22 (UniProt Q9NW64) 0.121
RBM33 (UniProt Q96EV2) 0.038
RABIF (UniProt P47224) 0.057
RANGAP1 (UniProt P46060) -0.024
RAP1GDS1 isoform 5 (UniProt P52306) -0.077
RAP2B (UniProt P61225) 0.157
RAB3GAP1 (UniProt Q15042) -0.08
RAC2 (UniProt P15153) 0.021
RAB5C isoform 2 (UniProt P51148) 0.043
RALGAPA1 isoform 6 (UniProt Q6GYQ0) 0.365
RABL6 (UniProt Q3YEC7) 0.01
RASSF5 (UniProt Q8WWW0) -0.001
RAVER1 (UniProt E9PAU2) -0.011
RABGGTB (UniProt P53611) 0.133
RALA (UniProt P11233) 0.104
RAB29 (UniProt O14966) -0.028
RB1 (UniProt P06400) -0.02
RAB6B (UniProt Q9NRW1) 0.016

2 records picked at random from those above, as already listed:
log2 fold change, inactive:
RALA (UniProt P11233) 0.104
RAP2B (UniProt P61225) 0.157
